This note sets out measurements from PubChem BioAssay AID1487 (National Center for Advancing Translational Sciences (NCATS), 2009).

Broadly, the AC50 is the concentration at which the activity in the assay is half-maximal.

The experiment in a line: qHTS Assay for Modulators of Lamin A Splicing. The conditions noted are these: HeLa LMNA splicing GFP/RFP minigene ratio, 48 h. The procedure, abridged: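 S3 HeLa cells stably expressing lamin A-EGFP splicing minigene plus DsRed2, 600 cells/well, 48 h compound exposure at 37C. Laser-scanning cytometry; analysed as GFP (500-530 nm)/RFP (575-640 nm) total intensity ratio; 0.5% DMSO vehicle.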

Setting [1] is: measured here: GFP splicing reporter channel.
Where [2] appears, read: measured here: RFP viability control channel.

The list shows a part of the results. The main result of the screen is listed elsewhere. These columns were measured beside it and carry no call. The list favours compounds with an active or inconclusive main result. Words in brackets tell the shape of the fitted curve; partial curves, single points and poor fits give uncertain potencies.

For `COc1cc(OC)c(OC)cc1C#N`, the AC50 under setting [1] was 1.12 µM [rising, full curve, poor fit].

On to `Nn1c(Cc2cccc3ccccc23)nnc1SCCOc1ccc(Br)cc1`, for which the half-maximal activity concentration (AC50) under setting [1] is 35.5 µM [falling, single point].

For `c1ccc(CN2CCN(C3=Nc4cccc5cccc3c45)CC2)cc1`, the AC50 by setting is: under setting [1], 12.6 µM [rising, single point]; under setting [2], 14.1 µM [rising, single point].

As for `Cc1cc(N/N=C/c2ccc(Cl)cc2Cl)nc(NCc2ccccc2)n1`, the AC50 is 15.8 µM [falling, single point] under setting [1] and 35.5 µM [falling, single point] under setting [2].

As for `Cc1ccc(/C(N)=N/OC(=O)c2cccc(Cn3cc(C(F)(F)F)ccc3=O)c2)cc1`, the AC50 is, setting by setting: under setting [1], 12.6 µM [falling, partial curve, poor fit]; under setting [2], 12.6 µM [falling, partial curve, poor fit].

On to `Cc1ccc(S(=O)(=O)Nc2cccc3cccnc23)cc1`, for which the AC50 under setting [2] is 17.8 µM [rising, single point].

As for `CC(C)(C)NC(=O)[C@H]1CN(Cc2cccnc2)CCN1C[C@@H](O)C[C@@H](Cc1ccccc1)C(=O)N[C@H]1c2ccccc2C[C@H]1O`, the AC50 is 28.2 µM [rising, partial curve, poor fit] under setting [1] and 14.1 µM [rising, single point] under setting [2].

On to `COc1ccc(N/N=C(\C#N)C(=N)SCc2ccccc2)cc1`, for which the AC50 by setting is: under setting [1], 2.24 µM [falling, full curve, poor fit]; under setting [2], 11.2 µM [falling, single point].

On to `COc1ccc(Nc2cnn(-c3nc4ccccc4s3)c(=O)c2Cl)cc1`, for which the AC50 runs as follows: under setting [1], 35.5 µM [falling, single point]; under setting [2], 15.8 µM [falling, single point].

For the molecule `O=C(Cc1c[nH]c2ccccc12)N/N=C/c1ccc(F)cc1`, the AC50 under setting [2] was 1.12 µM [rising, partial curve].

As to `Cc1cc(C)cc(-n2c(C)nc3cc(C(=O)NCc4ccc(F)cc4)ccc32)c1`, the concentration at half-maximal activity (AC50) under setting [1] is 22.4 µM [falling, single point].

Turning to `CN(c1cccc(NC(=O)CN(c2ccc(Cl)c(Cl)c2)S(=O)(=O)c2ccccc2)c1)S(C)(=O)=O`, the half-maximal activity concentration (AC50) is, setting by setting: under setting [1], 14.1 µM [rising, single point]; under setting [2], 12.6 µM [rising, partial curve].

For the molecule `c1ccc(-c2nc3nonc3nc2-c2ccccc2)cc1`, the AC50 under setting [2] is 35.5 µM [rising, single point].

Turning to `O=C(c1ccncc1)N(c1ccc2oc3c(c2c1)CCCC3)S(=O)(=O)c1ccc(F)cc1`, the AC50 is, setting by setting: under setting [1], 17.8 µM [rising, single point]; under setting [2], 28.2 µM [rising, single point].

On to `Cc1cc(C)cc(NC(=O)c2cnn(-c3ccc(C)c(C)c3)c2C2CCNCC2)c1`, for which the AC50 under setting [2] is 31.6 µM [rising, single point].

In the case of `CCOc1ccc(CCNC(=O)c2cn(-c3cccc(OC)c3)c(=O)c3ccccc23)cc1`, the AC50 under setting [1] was 2 µM [rising, partial curve].

`CCOC(=O)CCCNC(=O)COC(=O)/C=C/c1ccc2c(c1)OCO2`: the AC50 under setting [1] was 5.62 µM [rising, partial curve, poor fit].

For `Cn1nc(C(=O)NCc2ccc(F)cc2)c2ccccc2c1=O`, under setting [1], the AC50 is 15.8 µM [rising, single point].

`Cn1nc(-c2ccc(Cl)cc2)nc2c(=O)n(C)c(=O)nc1-2`: the AC50 under setting [1] is 2.82 µM [falling, full curve] and the AC50 under setting [2] was 3.55 µM [falling, full curve].

For the molecule `O=C(N/N=C/c1ccc([N+](=O)[O-])o1)c1ccc(O)cc1`, the AC50 runs as follows: under setting [1], 1 µM [falling, partial curve, poor fit]; under setting [2], 35.5 µM [rising, single point].

In the case of `CCN(C(=O)Cn1c(=O)nc(-c2ccccc2)c2cc(Cl)ccc21)c1cccc(C)c1`, under setting [1], the AC50 is 25.1 µM [falling, partial curve].

For `COc1ccc(N=C2SC(CC(=O)Nc3ccccc3F)C(=O)N2Cc2ccco2)cc1` (stereo not given), the AC50 under setting [1] was 22.4 µM [rising, single point] and the AC50 under setting [2] is 22.4 µM [rising, partial curve].

For `Cc1cc(C(=O)OC(C)C(=O)Nc2nc(-c3ccccc3)cs2)c(C)o1` (stereo not given), the AC50 by setting is: under setting [1], 11.2 µM [rising, partial curve]; under setting [2], 12.6 µM [rising, partial curve].

As for `O=C(O)CSc1c(O)c2ccccc2[nH]c1=O`, under setting [1], the AC50 is 0.158 µM [rising, single point].

On to `CCCCCOC(=O)NCC(O)c1ccccc1` (stereo not given), for which, under setting [2], the AC50 was 6.31 µM [rising, single point].

In the case of `COc1ccccc1-c1cc(-n2ccnc2)ncn1`, the AC50 is 35.5 µM [falling, single point] under setting [1] and 17.8 µM [falling, single point] under setting [2].

For `O=C(N/N=C/c1cc(Cl)ccc1O)c1ccc(Br)cc1`, the AC50 under setting [2] was 17.8 µM [rising, partial curve].

Turning to `COc1ccccc1Oc1ccc(N/C=C2/CCCC2=O)cc1`, the concentration at half-maximal activity (AC50) under setting [2] is 0.0141 µM [falling, full curve, poor fit].

As for `NS(=O)(=O)c1ccc(NC(=O)COC(=O)c2c3c(nc4ccccc24)/C(=C\c2ccc4c(c2)OCO4)CCC3)cc1`, the AC50 is 5.62 µM [falling, single point] under setting [1] and 35.5 µM [falling, single point] under setting [2].

`C(=C\c1nnc2c3ccccc3ncn12)/c1ccccc1`: the AC50 under setting [2] was 15.8 µM [rising, partial curve].

Consider `CCCn1c(SCC(=O)Nc2cccc(Cl)c2Cl)n[nH]c1=O`, for which, under setting [1], the AC50 was 0.02 µM [rising, partial curve, poor fit].

With `Cn1cc(CN2CCC[C@H]2CO)c(-c2cccc(Cl)c2)n1`, the AC50 under setting [2] is 5.62 µM [rising, single point].

As to `CCCC1(c2ccccc2)NC(=O)N(CC(=O)c2[nH]c(C)c(C(=O)OCC)c2C)C1=O` (stereo not given), the concentration at half-maximal activity (AC50) was 35.5 µM [falling, partial curve] under setting [1] and 35.5 µM [falling, single point] under setting [2].

Regarding `Cn1c(-c2c(N)n(C3CCCC3)c3nc4ccccc4nc23)nc2ccccc21`, the half-maximal activity concentration (AC50) is, setting by setting: under setting [1], 14.1 µM [rising, partial curve]; under setting [2], 22.4 µM [rising, partial curve].
